Library screening results

The filed quantity is “Percent Effect” (%).
The controls that fix the scale are not given in the record; negative values are as filed.
Compounds were drawn at random from those tested, without regard to their results.
Two or more numbers in one place are separate tests of the same structure; such repeats can differ widely.

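Viability assay of Plasmodium falciparum sporozoites; the read-out is not stated. The concentration is filed as 10 mM, unlikely as a test dose, so the dose is not known. Direction is inferred from retests: higher values go with lower viability. Strong results were mostly tested again. Of about 34,000 compounds tested this way, about 280 (0.84%) reached 50% or more in at least one test.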

compound | effect
O=C(c1ccc(F)c(F)c1)N1CCC[C@]2(C[C@@H](OCC3CC3)CO2)C1 | 20.02
CCc1noc(C(C)N2CCN(Cc3ncc(C(C)(C)C)o3)CC2)n1 (centres undefined) | 4.452
Cn1cc(CN2CCCN(C(=O)c3ccc4ccccc4n3)CC2)cn1 | 1.596
CNC(=O)NCC1CCC2(CCN(C(=O)c3ccccc3)CC2)CO1 (centres undefined) | 21.31
Cc1cc(CN2CCN(c3nn4cc(C)nc4s3)CC2)on1 | -3.819
[H][C@@]12C[C@@H](c3nnc(C4CC4)o3)O[C@]1([H])CN(C(=O)c1ccsc1)C2 | -7.709
C[C@]1(O)CN(Cc2cscn2)CC[C@@H]1Oc1cccc(F)c1 | 11.72
CC(=O)N1CCCC1c1cccc(Cc2ccccc2F)n1 (centres undefined) | -2.962
N#Cc1ccccc1OCCN1CCCC1Cn1cncn1 (centres undefined) | 10.5
[H][C@]12CC[C@]([H])(CN(CC(=O)N(C)C)C1)N(C/C=C/c1ccc(F)cc1)C2 | 4.788
CN1CCCC1c1ccc(C(=O)Nc2c3c(nn2C)CCC3)s1 (centres undefined) | 1.74
CNc1nccnc1C1CN(Cc2ccc3[nH]ccc3c2)CCO1 (centres undefined) | -10.49
CC(=O)NCCNC(=O)c1cc(COc2ccccc2)[nH]n1 | 1.644
CC[C@H](Cn1ncc2ccccc2c1=O)NC(=O)c1ccccn1 | 1.356
CC1(C)CN(C(=O)c2cc(F)cc3[nH]cnc23)CCS1 | -7.051
Cc1noc(C)c1C(=O)N1CCCCC1c1cc(C)n2ccnc2n1 (centres undefined) | 6.7
CC(C)=CCN1CCN(Cc2cc(C)c(O)c(C)c2)CC1CCO (centres undefined) | 8.947
COCCC(=O)N1CCC(c2cc3ncc(C)nc3[nH]2)CC1 | 11.75
Cc1ccoc1C(=O)N1CCn2nnc(COc3cccnc3)c2C1.O=C(O)C(F)(F)F | -6.778
COc1cccc(CNc2c(C)cnc3c2c(=O)n(C)c(=O)n3C)c1 | -1.771
Cc1nc(C)c(CNC(=O)NC2CC(C)(C)OC2(C)C)s1 (centres undefined) | -1.443
O=c1[nH]c(-c2ccncc2)ncc1-c1ccnc(NC2CC2)n1 | 16.17
CC(Cn1cccn1)NCc1ccc(OCc2ccncc2)cc1 (centres undefined) | -19.13 and 1.682 and -16.03
O=c1cccnn1CC1CN(c2ncc(F)cn2)Cc2nccn2C1 (centres undefined) | -1.012
O=C(O)[C@@H]1CN(CC(=O)N2CCCCC2)C[C@H]1c1ccc(F)cc1 | 15.26
O=C(O)C(F)(F)F.O=C(O)C(F)(F)F.O=C(O)C(F)(F)F.[H][C@@]12COC[C@]1([H])[C@H](OCc1ccccn1)CN2Cc1cccnc1 | 4.619
C[C@H]1CN(Cc2cccc(F)c2)C[C@@]12CCN(CC(=O)N(C)C)C2=O.O=C(O)C(F)(F)F | 0.613
CC(Cn1ccnc1)NC(=O)N1CCN(Cc2cccnc2)CC1 (centres undefined) | 6.925
COCC(=O)N1CCCN(Cc2cc(O)c3ccccc3n2)CC1 | 5.702
O=C(O)C(F)(F)F.O=C(O)C(F)(F)F.[H][C@@]12COC[C@H](NS(C)(=O)=O)[C@]1([H])CN(Cc1cccc(C)n1)C2 | 3.204
CC(=O)NC(C)CC(=O)NCc1cccnc1Oc1ccccc1C (centres undefined) | 6.495
[H][C@@]12COC[C@]1([H])[C@@H](OCc1cccnc1)CN2C(=O)c1ccc(C)nc1 | 18.33
O=C(O)C(F)(F)F.O=C(O)C(F)(F)F.[H][C@@]12CN(C(=O)c3cccc(C)n3)C[C@]1([H])[C@@H]2CC(=O)Nc1cccnc1 | -9.923
CN1CCOC(CNCc2cccc(OC(F)(F)F)c2)C1 (centres undefined) | 2.067
Fc1cnc(N2CCCC3(CN(Cc4cccs4)CCO3)C2)nc1.O=C(O)C(F)(F)F (centres undefined) | 5.223
CS(=O)(=O)N1CCCC1Cn1cccn1 (centres undefined) | 8.133
[H][C@]12CN(CC3CC3)C(=O)[C@@]1([H])CN(S(=O)(=O)c1cccs1)C2 | 14.2
Cc1cn[nH]c1C1COCCN1Cc1cscn1 (centres undefined) | -1.393
Cc1nc(CN2CCCC(CCc3c(F)cccc3F)C2)c[nH]1 (centres undefined) | -15.07
Cn1ccc(C(=O)N2CCN(CCc3ccccc3)CC2)cc1=O | -4.773
CCCOCC1CCN(C(=O)c2cnc(C)nc2O)C1 (centres undefined) | -0.7692
CN1CCC(c2nnc3ccc(C(=O)N4CCCCC4)cn23)C1.O=C(O)C(F)(F)F (centres undefined) | -6.927
Cc1noc(C)c1CN1CCC2(CC1)NC(=O)CC2c1ccccc1.O=C(O)C(F)(F)F (centres undefined) | 2.512
O=C(O)C(F)(F)F.[H][C@]12CCC[C@@H](CN3CCOCC3)[C@@]1([H])CN(c1cc(OC)ncn1)C2 | 0.1189
CC(Cn1cccn1)NCCCc1nc(-c2cccs2)no1 (centres undefined) | -5.117
COc1ccccc1CC(=O)NCCCN1CCCC1C(=O)N(C)C (centres undefined) | 0.8264
CC(NC(=O)NCc1ccoc1)c1ccc2c(c1)CCC(=O)N2 (centres undefined) | 11.28
Cc1cnn(CCCN2C(=O)CCc3ccccc32)c1 | 5.128
CCN(CC)CCCNc1nc(C)nc2c1CCN(C)C2.O=C(O)CC(O)(CC(=O)O)C(=O)O | 7.039
CCc1n[nH]c(C2CN(C(=O)c3ccc4c(c3)COC4)CCO2)n1 (centres undefined) | 1.735
Cc1ccccc1CN1CCCN(C2CCOC2=O)CC1 (centres undefined) | 0
Cc1cc(Cc2ccccc2C)cc(C2CCCNC2)n1 (centres undefined) | 5.952
Cc1cn[nH]c1C1COCCN1C(=O)c1ccc2c(c1)CCCC2 (centres undefined) | 1.015
CCS(=O)(=O)N(C)c1ccc(C(=O)N2CCCC(C)C2)cc1 (centres undefined) | -20.6
CCNC(=O)N1CCC(Nc2nccc(NCC)n2)CC1 | 10.66
NS(=O)(=O)CCCNC(=O)c1cnc(-c2ccsc2)s1 | -14.46
O=C(O)C(F)(F)F.O=C(O)C(F)(F)F.[H][C@@]12COC[C@@H](C(=O)N3CCCCO3)[C@]1([H])CN(Cc1cnn(C)c1)C2 | -20.63 and 57.09 and -26.73
O=C(O)C(F)(F)F.[H][C@]12CN(CC(C)C)C[C@@]1([H])S(=O)(=O)CC[C@@H]2C(=O)NCC(C)C | 12.89
CCc1ccc(CN2CCC3(CC(C(=O)NCC(C)C)=NO3)C2)o1 (centres undefined) | 12.31

Some entries from above, unchanged:

| compound | effect |
|---|---|
| `O=C(O)[C@@H]1CN(CC(=O)N2CCCCC2)C[C@H]1c1ccc(F)cc1` | 15.26 |
| `CC(Cn1cccn1)NCCCc1nc(-c2cccs2)no1` (centres undefined) | -5.117 |
| `CCCOCC1CCN(C(=O)c2cnc(C)nc2O)C1` (centres undefined) | -0.7692 |

From ChEMBL document CHEMBL3988442, “University of Dundee, Small-Polar-MMV Screening Library” (2021).